According to publication PMC12122562, “Phase 1 studies of the indenoisoquinolines LMP776 and LMP744 in patients with solid tumors and lymphomas” (Cancer Chemotherapy and Pharmacology, 2025):
The amount applied is not stated for every result.

Assays:
[1] = tested on: advanced, refractory solid tumors or lymphomas; assay: Phase 1 trial of LMP744: tumor response (RECIST v1.1), cycles completed; format: in vivo, human; settings: 28-day cycles
Description: (§1) Tumor responses were evaluated by serial CT scans according to RECIST v1.1 criteria. CT scans were performed every other cycle during the first year, then every 3 cycles after the first year. Toxicities associated with LMP776 were evaluated according to criteria specified in CTCAE version 4.0; toxicities associated with LMP744 were evaluated according to the criteria specified in CTCAE version 4.03 (on or before March 31, 2018) or version 5.0 (on or after April 1, 2018). Criteria for all versions can be found at https://ctep.cancer.gov/protocolDevelopment/electronic_applications/ctc.htm. Any patient who received a dose of either agent was considered eligible for toxicity evaluation.

[2] = tested on: advanced, refractory solid tumors or lymphomas; assay: Phase 1 trial of LMP776: tumor response (RECIST v1.1), cycles completed; format: in vivo, human; settings: 28-day cycles
Description: as §1

Structure (SMILES) | Median cycles of treatment completed [1] [cycles] | Range of cycles of treatment completed [1] | Median cycles of treatment completed [2] [cycles] | Range of cycles of treatment completed [2]
COc1cc2c3c(n(CCCNCCO)c(=O)c2cc1OC)-c1cc2c(cc1C3=O)OCO2 [LMP744] | 2 | 1–31 cycles | – | –
COc1cc2c3c(n(CCCn4ccnc4)c(=O)c2cc1OC)-c1cc2c(cc1C3=O)OCO2 [LMP776] | – | – | 2 | 1–9 cycles
